These are yes or no findings as the source states them, for the method shown. Some binding calls cover weakened binding; strength is not graded here.
Key:
His6-MBP-DHFR = His6-MBP-DHFR (UniProt P00374); assay: co-purification on an affinity (IMAC) column; His6-MBP proteins purified under native conditions from E. coli on an IMAC column; co-purified endogenous GroEL detected by Western blot with anti-GroEL antibody and SDS-PAGE
His6-MBP-G3PDH = His6-MBP-G3PDH (UniProt P16858); assay: as above

Sequences of proteins named here, by UniProt entry; tags and fusion partners are left off.
UniProt P00374: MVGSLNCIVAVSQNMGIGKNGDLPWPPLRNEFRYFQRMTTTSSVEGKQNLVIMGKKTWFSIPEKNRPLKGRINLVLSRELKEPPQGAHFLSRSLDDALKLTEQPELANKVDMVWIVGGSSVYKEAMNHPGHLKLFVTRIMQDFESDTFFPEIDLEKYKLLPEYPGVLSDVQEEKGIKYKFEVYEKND
UniProt P16858: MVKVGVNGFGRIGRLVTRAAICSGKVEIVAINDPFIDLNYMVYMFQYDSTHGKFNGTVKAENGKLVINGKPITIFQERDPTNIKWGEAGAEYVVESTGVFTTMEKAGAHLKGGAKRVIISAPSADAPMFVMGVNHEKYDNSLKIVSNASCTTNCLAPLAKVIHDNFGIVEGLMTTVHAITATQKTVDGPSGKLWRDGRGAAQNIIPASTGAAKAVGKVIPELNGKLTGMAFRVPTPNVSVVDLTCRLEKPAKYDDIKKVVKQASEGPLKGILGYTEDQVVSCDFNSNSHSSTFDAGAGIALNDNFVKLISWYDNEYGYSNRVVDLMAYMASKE
UniProt P0A6F5: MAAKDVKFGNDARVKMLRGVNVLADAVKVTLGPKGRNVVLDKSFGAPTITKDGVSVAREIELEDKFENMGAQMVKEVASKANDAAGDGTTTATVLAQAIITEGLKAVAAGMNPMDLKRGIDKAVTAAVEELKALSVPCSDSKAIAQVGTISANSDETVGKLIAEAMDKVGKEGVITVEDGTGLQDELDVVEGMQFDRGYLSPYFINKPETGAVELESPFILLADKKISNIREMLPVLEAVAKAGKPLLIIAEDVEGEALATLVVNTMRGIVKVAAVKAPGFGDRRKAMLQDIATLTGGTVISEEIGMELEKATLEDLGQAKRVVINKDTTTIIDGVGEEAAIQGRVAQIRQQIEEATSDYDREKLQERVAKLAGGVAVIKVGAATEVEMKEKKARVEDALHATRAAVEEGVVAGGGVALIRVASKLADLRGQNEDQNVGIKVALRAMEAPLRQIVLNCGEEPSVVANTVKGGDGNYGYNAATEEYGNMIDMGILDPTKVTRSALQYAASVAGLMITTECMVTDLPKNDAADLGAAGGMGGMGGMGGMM

What does the source list for GroEL (from UniProt P0A6F5 1-548)?
binding (His6-MBP-DHFR): binds; binding (His6-MBP-G3PDH): binds
